PubChem BioAssay AID2685 (National Center for Advancing Translational Sciences (NCATS), 2010)
In all, about 320,000 compounds went through this assay and about 2,100 (0.66%) were called active. Inconclusive results, whose numbers are uncertain, are shown with a selection of clear calls. Calls come from the whole dose curve; as a rule, active = well fitted inhibition curve with a large enough effect in the signal ratio, with a control signal flat (not every such curve was filed as active); inconclusive = small, poorly fitted or top-dose-only effect, or effect the other way, or a change in a side signal; inactive = flat fitted curve, though single readings scatter; the % refers to the signal ratio. Where the call is inconclusive, the potency comes from a doubtful curve fit.

Test: qHTS Assay for Lipid Storage Modulators in Drosophila S3 Cells
Conditions: BODIPY lipid droplet fluorescence, 18-24 h, cells fed with added oleic acid; lipid storage change, negative = inhibition: at 46.1 µM (top of the series) unless noted
Method in brief: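 Drosophila S3 cells got compounds at several concentrations plus oleic acid (400 uM solution). Laser-scanning cytometry with 488 nm excitation read lipid droplets at 500-530 nm and cells at 575-640 nm. Percent activity was relative to 20 uM Triacsin C.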
% is set by controls: 0 for no effect and ±100 for the full control effect; potency is the fitted concentration of half-maximal effect.

| Compound | lipid storage change, negative = inhibition | Potency | outcome |
| --- | --- | --- | --- |
| Cc1ccc(-c2nc3ccccc3nc2-c2ccccc2)cc1 | inconclusive: 37.6% | – | – |
| COC(=O)[C@@H]1C[C@@]2(O)[C@@H](O)[C@@H](O)[C@@H](O)C[C@H]2N1Cc1ccc(C(F)(F)F)cc1 | inconclusive: -4.15% | – | – |
| CC(C)c1ccc(NC(=O)c2cc(S(=O)(=O)NCC3COc4ccccc4O3)ccc2F)cc1 (stereo unspecified) | inconclusive: 37.8% | – | – |
| OC(CCN1CCCC1)(c1ccccc1)C1CCCCC1 (stereo unspecified) | inconclusive: 0.138% | – | – |
| Nc1nnc(-c2cn(-c3ccccc3)nc2-c2ccc(Cl)cc2)o1 | inconclusive: -17% | – | – |
| CCCNC(=O)Nc1ccc(F)c(Cl)c1 | inconclusive: -52% | – | – |
| O=S(=O)(NC1c2cccc3cccc(c23)C1N1CCN(CCO)CC1)c1ccccc1 (stereo unspecified) | – | inconclusive: 116 nM [falling, single point] | – |
| Cc1ccccc1C(=O)Nc1ccccc1-n1cccc1 | inconclusive: 32% | – | – |
| COc1ccccc1NC(=O)C1=C(C)Nc2nc(CCCO)nn2C1c1ccc2c(c1)OCO2 (stereo unspecified) | – | – | inactive [at 46.1 µM] |
| CCOn1c(=O)c(-c2ccc(Br)cc2)[n+]([O-])c2ccccc21 | inconclusive: 12% | – | – |
| COc1cccc(Oc2nc(-c3ccncc3)nc3ccccc23)c1 | inconclusive: -41.7% | – | – |
| CC(=O)Nc1ccccc1NC(=O)c1cccc2ccccc12 | inconclusive: -10.2% | – | – |
| COC(=O)C1=C(C)N(Cc2ccc(C)cc2)C(=O)/C1=C\c1ccc(O)c(OC)c1 | inconclusive: -13.9% | – | – |
| O=C(CCNc1ccccc1)c1ccc2c(c1)OCO2 | inconclusive: 24.2% | – | – |
| COc1ccc2c(c1)cc(C(=O)N[C@H](C(=O)N1CCC(C(=O)O)CC1)C(C)C)n2C | – | inconclusive: 25900 nM [activator, single point] | – |
| Cc1ccc(S(=O)(=O)NCCSc2nnnn2-c2cc(C)ccc2C)cc1 | – | inconclusive: 4110 nM [activator, single point] | – |
| Cc1[nH]c2ccccc2c1C(=O)C(=O)N1CC(C)OC(C)C1 (stereo unspecified) | inconclusive: 0.582% | – | – |
| COc1cc(N2C(=O)CSC2=S)cc(OC)c1OC | inconclusive: -146% | – | – |
| O=C(Cc1cccs1)N1CCN(S(=O)(=O)c2ccc(Br)cc2)CC1 | inconclusive: 18% | – | – |
| COc1cc(/C=C(/C#N)c2nc3ccccc3[nH]2)ccc1OC(=O)c1ccco1 | inconclusive: 35% | – | – |
| COc1cc(OC)c(C(=O)OCC(=O)NCC2CCCCC2)cc1OC | – | inconclusive: 4110 nM [activator, partial curve] | – |
| Cc1cccc(NC(=S)NCC(c2cccnc2)N2CCOCC2)c1 (stereo unspecified) | inactive: 16.3% | – | – |
| CS(=O)(=O)NNC(=O)c1cc2cc3ccccc3nc2s1 | – | inconclusive: 2310 nM [activator, full curve] | – |
| COc1ccccc1-c1ccc(SCc2cccc(F)c2)nn1 | – | inconclusive: 18400 nM [rising, single point] | – |
| CC12CCC(=O)N1C(C(=O)Nc1ccccc1N1CCCCC1)CS2 (stereo unspecified) | – | inconclusive: 731 nM [falling, full curve, poor fit] | – |
| Cc1ccc(CNCC2CCCO2)s1 (stereo unspecified) | – | inconclusive: 1840 nM [rising, partial curve] | – |

| Compound | lipid storage change, negative = inhibition | Potency | outcome |
| --- | --- | --- | --- |
| CCc1cc2c(=O)[nH]c(Cc3ccc(OC)cc3)nc2s1 | inconclusive: 3.89% | – | – |
| O=C(COC(=O)C1=COCCO1)Nc1ccc(F)c(F)c1 | inconclusive: 1.09% | – | – |
| Cc1ccccc1NC(=O)Nc1nnc(CC(=O)NCc2ccccc2)s1 | inconclusive: -15% | – | – |
| Cc1cc(C=O)c(C)n1-c1ccc(Cl)c(C(=O)O)c1 | inconclusive: 49.1% | – | – |
| NC(=O)C1(N2CCCCC2)CCN(C(=O)NC23CC4CC(CC(C4)C2)C3)CC1 | inconclusive: -39.7% | – | – |
| CCC(C)NC(=O)CSc1nc2ccccc2c(=O)n1CCCN1CCCCC1 (stereo unspecified) | inactive: 24.2% | – | – |
| N#CC1=C2SCN(Cc3ccccc3)CN2C(=O)CC1c1cccs1 (stereo unspecified) | – | inconclusive: 731 nM [falling, full curve] | – |
| C=CCNC(=O)CN(Cc1ccccc1)S(=O)(=O)c1ccc(C)cc1 | – | inconclusive: 23100 nM [falling, single point] | – |
| CCSc1cc(N2CCCC2)nc(-c2ccc(C)cc2)n1 | inconclusive: 0.725% | – | – |
| COc1cc(OC)cc(C(=O)NC(=S)Nc2ccc(NC(=O)c3ccco3)cc2)c1 | inconclusive: -39.9% | – | – |
| CCCc1cc(=O)[nH]c(SCC(=O)c2cc(C)n(-c3cc(C)on3)c2C)n1 | inconclusive: 1.86% | – | – |
| Cc1cc(C)c(C)c(OCCn2ccnc2)c1 | inconclusive: 13.8% | – | – |
| COCCOC(=O)C1=C(C)NC(=O)N(C(C)=O)C1c1ccc(Cl)cc1 (stereo unspecified) | inconclusive: -1.59% | – | – |
| Cc1ccc(C)c(N2CCN(CCCNC(=O)Cn3c(=O)c4cccn4c4cccnc43)CC2)c1 | – | inconclusive: 36.6 nM [activator, full curve, poor fit] | – |
| COc1ccc(CCNC(=O)c2ccc(-c3ccc([N+](=O)[O-])cc3Cl)o2)cc1OC | inconclusive: 1.19% | – | – |
| O=C(Nc1ccccc1Cl)c1cc[n+](Cc2ccc([N+](=O)[O-])cc2)cc1 | inconclusive: -0.391% | – | – |
| CCC(=O)Nc1nc(C)cc(SCC(=O)OC)n1 | inconclusive: 7.99% | – | – |
| CCC(=O)c1cccc2c1N=CC1=C(CC(C)(C)CC1=O)N2 | – | inconclusive: 58 nM [activator, full curve, poor fit] | – |
| Cn1c(/C(C#N)=C/c2ccncc2)nc2ccccc21 | – | inconclusive: 103 nM [falling, full curve, poor fit] | – |
| CCOc1ccccc1NC(=O)CSc1nnc(CCC(=O)Nc2ccccc2F)n1C | – | – | inactive [at 46.1 µM] |
| COc1cc([C@@H]2c3cc4c(cc3[C@@H](O)[C@H]3COC(=O)[C@H]23)OCO4)cc(OC)c1O[Si](C)(C)C(C)(C)C | inconclusive: -120% | – | – |
| Cc1csc(NC(=O)C2CCN(S(=O)(=O)c3ccccc3F)CC2)n1 | inconclusive: 15.5% | – | – |
| Cc1cc(CNC(=O)COC(=O)c2ccc(Cl)c(N)c2)cc(C)c1O | inconclusive | – | – |
| CN(CCOc1ccc(Cl)cc1)C(=O)C1CCN(C(=O)c2ccc(F)cc2)CC1 | inconclusive: 0.75% | – | – |
| O=C(CCS(=O)(=O)Cc1ccccc1)NCCc1ccccc1 | inconclusive: -9.9% | – | – |

Arranged by number of heavy atoms (rising): some entries from above.

| Compound | lipid storage change, negative = inhibition | Potency | outcome |
| --- | --- | --- | --- |
| CCC(=O)Nc1nc(C)cc(SCC(=O)OC)n1 | inconclusive: 7.99% | – | – |
| O=C(COC(=O)C1=COCCO1)Nc1ccc(F)c(F)c1 | inconclusive: 1.09% | – | – |
| NC(=O)C1(N2CCCCC2)CCN(C(=O)NC23CC4CC(CC(C4)C2)C3)CC1 | inconclusive: -39.7% | – | – |
